Results published in PMC7819943, “Rice protein-binding microarrays: a tool to detect cis-acting elements near promoter regions in rice”.
The other results are listed elsewhere or left out.

Sequences of proteins named here, by UniProt entry; tags and fusion partners are left off.
UniProt Q0JBA9, entry or part of it: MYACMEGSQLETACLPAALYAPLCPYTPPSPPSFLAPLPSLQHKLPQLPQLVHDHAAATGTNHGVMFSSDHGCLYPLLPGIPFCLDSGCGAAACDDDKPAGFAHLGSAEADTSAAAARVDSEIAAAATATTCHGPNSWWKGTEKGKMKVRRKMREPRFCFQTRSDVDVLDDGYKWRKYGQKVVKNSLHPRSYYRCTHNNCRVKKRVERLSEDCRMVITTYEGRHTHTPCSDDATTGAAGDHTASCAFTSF

molecular target: OsWRKY34 (Oryza sativa, UniProt Q0JBA9 1-250); experiment: protein-binding microarray (RPBM); PBS, 2% BSA, 51.3 ng/ul salmon testes DNA, 50 uM zinc acetate, 200 nM TF, 25 C, 1 h; high values mean tight binding; conditions: protein: recombinant; tags: N-terminal polyhistidine and DsRed monomer fusion (pET32a); label: CyDye5-dUTP incorporated in the synthesized complementary strand; 3' TTTTT single-stranded linker to array surface; dsDNA, one strand shown
Method in brief: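 Binding signal is reported as fluorescence intensity per feature (arbitrary units) from an Axon 4000B scanner. Incubation used 200 nM of each Ni–NTA-purified, N-terminally polyhistidine- and DsRed-fused transcription factor from E. coli BL21-CodonPlus on a double-stranded custom Agilent array for 1 h at 25 °C, with 50 µM zinc acetate in the buffer, followed by washing.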

Sequence | binding signal
TCTCCTTTGCTGTCGGTGCTCCTCTTCTCCTTCTCTGTGCCGGAGTCACCTAGTGCAG | 8040 fluorescence intensity (a.u.)
TCTTATCTGCTTGTCCATTCCGTTCCCGTCCGCTAGGTCCCGGAGTCACCTAGTGCAG | 8180 fluorescence intensity (a.u.)
AAACAGGTAACAATTTATTCTATGTCGGCTTATTATAATCCGGAGTCACCTAGTGCAG | 8750 fluorescence intensity (a.u.)
GCCATTCATATGTTTTTCCTATGTTTTGCAATCCTCTGTTCGGAGTCACCTAGTGCAG | 13200 fluorescence intensity (a.u.)
CGTACGCCTCTATATATGCCTCTTCAAACGCCTCTCGCATCGGAGTCACCTAGTGCAG | 10000 fluorescence intensity (a.u.)
GCCTCACTCATCATCGGGTCCCGCATCACTTTTGTTTGAACGGAGTCACCTAGTGCAG | 9340 fluorescence intensity (a.u.)
TTCGCCGTCGCCTTGCTTAGCCTAGGGTTTTTCTCACACTCGGAGTCACCTAGTGCAG | 9970 fluorescence intensity (a.u.)
TTTTCCCTTTTACTCCATCCCATTTTGATCATCCCCTAAACGGAGTCACCTAGTGCAG | 9320 fluorescence intensity (a.u.)
CTCATTGTTGTTGTGTTGTTGCGTTTGGTTTGGTGTGCTCCGGAGTCACCTAGTGCAG | 8510 fluorescence intensity (a.u.)
ACTTATATTTTTTTAACGTTTGATTGTTCGTCTTATTAAACGGAGTCACCTAGTGCAG | 9470 fluorescence intensity (a.u.)
AGAACGAACTCAATGAATATATTACCTATTTGCATTTTGCCGGAGTCACCTAGTGCAG | 8540 fluorescence intensity (a.u.)
CCCTCGCGCCTCCGCCACCTCCTCTGTCGCCGCCATCGCCCGGAGTCACCTAGTGCAG | 13400 fluorescence intensity (a.u.)
ACATCCCAAGCTTCCCAAGCACACACTGTTTTAGTGTTCACGGAGTCACCTAGTGCAG | 10100 fluorescence intensity (a.u.)
AGAGAGAGACTCAGGGAGGGTTTCGTTTCCGTTTCTTGCGCGGAGTCACCTAGTGCAG | 9520 fluorescence intensity (a.u.)
ACTCACTTTAGATTTTTTTTTCCAACATGATCGTCTGTCTCGGAGTCACCTAGTGCAG | 11800 fluorescence intensity (a.u.)
TTTATAGAGGTCATCCTCGTTTACTTAGCCCATTTCATACCGGAGTCACCTAGTGCAG | 9640 fluorescence intensity (a.u.)
TGTCGTCCTTCAGGCCAACTTTGTCTTCCTTTGTTTCGACCGGAGTCACCTAGTGCAG | 16400 fluorescence intensity (a.u.)
TAAGTTAAACTCTTTGTCGCATGCATAACGTTTTCATTATCGGAGTCACCTAGTGCAG | 9370 fluorescence intensity (a.u.)
CATCACCACCATACAATCTCATGTTTTATTCTCAACTTATCGGAGTCACCTAGTGCAG | 8350 fluorescence intensity (a.u.)
TACGTCATCCGTATTTGAGTCGGTTTTTATGTTTGTTCGCCGGAGTCACCTAGTGCAG | 12800 fluorescence intensity (a.u.)
CATACAAGTTAATAGGTTAGGTTGAGGGGTATTGAAGGGGCGGAGTCACCTAGTGCAG | 8110 fluorescence intensity (a.u.)

Some values from above.
ACTTATATTTTTTTAACGTTTGATTGTTCGTCTTATTAAACGGAGTCACCTAGTGCAG – binding signal: 9470 fluorescence intensity (a.u.)
TACGTCATCCGTATTTGAGTCGGTTTTTATGTTTGTTCGCCGGAGTCACCTAGTGCAG – binding signal: 12800 fluorescence intensity (a.u.)

Later entries.

Sequence | binding signal
CTTGGGCTGCTAGTTCGGCAACGATAACACCTCTTCTGTGCGGAGTCACCTAGTGCAG | 8770 fluorescence intensity (a.u.)
ATAAAAGGCCCACATTGCGAGCCCAGCCCAACTCCGCCACCGGAGTCACCTAGTGCAG | 8230 fluorescence intensity (a.u.)
AAACTACCATGGGACTTATATTGCTCCGGTTTTGATAGTTCGGAGTCACCTAGTGCAG | 8480 fluorescence intensity (a.u.)
TTCGGGGATTTTGTTTGTATGTTGAAGTTGGAAAGTAGATCGGAGTCACCTAGTGCAG | 10700 fluorescence intensity (a.u.)
CCGGAACAGCGCCGCCTCGTGTCCGCCACGCCATTTTTTTCGGAGTCACCTAGTGCAG | 9420 fluorescence intensity (a.u.)
TGGTTTTCTATCAGCGTCGTCTATATTTGCTAGTTTGATTCGGAGTCACCTAGTGCAG | 10200 fluorescence intensity (a.u.)
CTTCCTTAGTCCCGGTTGTTTTTTTTTTCATTGTTTTTTTCGGAGTCACCTAGTGCAG | 10000 fluorescence intensity (a.u.)
CTTTTAATTCCTTGCACCTGTCTACTGCTAGACATGCAACCGGAGTCACCTAGTGCAG | 8460 fluorescence intensity (a.u.)
ACCTCGTCAGGTTTCCGTTCCGCCTCCGCCTCTGCTGCTCCGGAGTCACCTAGTGCAG | 8330 fluorescence intensity (a.u.)
ACTCCATGTTTTTGTCTGATTGAGTGCCCGTGCTCCGTCCCGGAGTCACCTAGTGCAG | 10200 fluorescence intensity (a.u.)
CAACGAGATGAACATGGAAACACGCCGCTACACTTCTCTCCGGAGTCACCTAGTGCAG | 8160 fluorescence intensity (a.u.)
CCGTGCGCATCCACCATGGCCTTCTTGTGCGCATCGATCACGGAGTCACCTAGTGCAG | 9020 fluorescence intensity (a.u.)
AGCGGGTGGGGTGTATAGGAGTACAGTTGTAGAGTCACCACGGAGTCACCTAGTGCAG | 10900 fluorescence intensity (a.u.)
AAAGTGATGTGGTGGTGGAGTTGTGGGTATATGATTTTATCGGAGTCACCTAGTGCAG | 8790 fluorescence intensity (a.u.)
CGTGAACTACTTGACTCTTCTCTTCATGCGTTTTCTTCAGCGGAGTCACCTAGTGCAG | 12100 fluorescence intensity (a.u.)
TACTAGCTGATTTTGTCATTACCTTTTGGCCGTATTCGCCCGGAGTCACCTAGTGCAG | 10200 fluorescence intensity (a.u.)
CCATCGAGCCATCAACCAACACGCTCTATCTGTTTACTCTCGGAGTCACCTAGTGCAG | 9460 fluorescence intensity (a.u.)
CCACCACCACCCTCTCCACCTCCGCCACCACCAAAATCCGCGGAGTCACCTAGTGCAG | 8850 fluorescence intensity (a.u.)
CTTCGGTATTGTATAGATATGGGACTGTCTCCCGGAGGTTCGGAGTCACCTAGTGCAG | 9840 fluorescence intensity (a.u.)
ACCTGTATTTGTCATTATTTAGTGGACTCTGCTTAGTTCTCGGAGTCACCTAGTGCAG | 19300 fluorescence intensity (a.u.)
ATATGTTCTCCTAATCCACCGACAGTTAAGTACCTTTTTTCGGAGTCACCTAGTGCAG | 8600 fluorescence intensity (a.u.)
